Reference: the supplement of paper PMC11348887
Where a name gives a salt, the structure may show the parent alone. Some of the results follow. Most values lie at the level of the controls, where differences are scatter.

Columns and labels:
Settings in all cases: 5 µM; treatment: days 7-14 after plating, readout day 21
[1] = test system: hPSC-derived cortical neurons (WA09); experiment: nucleus area z-score vs screen plate; higher = larger nuclei (more mature)
[2] = test system: hPSC-derived cortical neurons (WA09); experiment: total neurite length per nucleus (MAP2) z-score; higher = more neurite growth
[3] = test system: hPSC-derived cortical neurons (WA09); experiment: nucleus roundness z-score vs screen plate; higher = rounder nuclei (more mature)
[4] = test system: hPSC-derived cortical neurons (WA09); experiment: KCl-induced FOS+/EGR-1+ double-positive nuclei fraction z-score (KCl minus unstimulated); higher = stronger activity-induced IEG response

CC(C=CC1(O)C(C)=CC(=O)CC1(C)C)=CC(=O)O (stereo unspecified) [Abscisic Acid (Dormin_]
nucleus area z-score [1]: 1.2 | total neurite length per nucleus (z-score) [2]: 0.633 | nucleus roundness z-score [3]: 0.484 | KCl-induced FOS+/EGR-1+ double-positive nuclei fraction z-score [4]: -0.518

CCOc1ccccc1OCCN[C@H](C)Cc1ccc(OC)c(S(N)(=O)=O)c1 [Tamsulosin hydrochloride]
nucleus area z-score [1]: 1.33 | total neurite length per nucleus (z-score) [2]: -0.704 | nucleus roundness z-score [3]: -0.534 | KCl-induced FOS+/EGR-1+ double-positive nuclei fraction z-score [4]: -0.941

CN(C)CCCOc1nn(Cc2ccccc2)c2ccccc12 [Benzydamine HCl]
nucleus area z-score [1]: 0.531 | total neurite length per nucleus (z-score) [2]: -0.187 | nucleus roundness z-score [3]: -0.476 | KCl-induced FOS+/EGR-1+ double-positive nuclei fraction z-score [4]: 0.182

COc1cc(OC2CCN(C)CC2)ccc1Nc1ncc2c(n1)n(C1CCCC1)c(=O)n2C
nucleus area z-score [1]: -1.1 | total neurite length per nucleus (z-score) [2]: -0.322 | nucleus roundness z-score [3]: 0.177 | KCl-induced FOS+/EGR-1+ double-positive nuclei fraction z-score [4]: -1.49

CCC[C@H](NC(=O)[C@@H]1[C@H]2CCC[C@H]2CN1C(=O)[C@@H](NC(=O)[C@@H](NC(=O)c1cnccn1)C1CCCCC1)C(C)(C)C)C(=O)C(=O)NC1CC1 [Telaprevir (VX-950)]
nucleus area z-score [1]: 0.442 | total neurite length per nucleus (z-score) [2]: -0.243 | nucleus roundness z-score [3]: -0.0386 | KCl-induced FOS+/EGR-1+ double-positive nuclei fraction z-score [4]: -0.922

COc1ccc(-c2cc3c(C)nc(N)nc3n([C@H]3CC[C@H](OCCO)CC3)c2=O)cn1
nucleus area z-score [1]: -3.76 | total neurite length per nucleus (z-score) [2]: -0.831 | nucleus roundness z-score [3]: 0.282 | KCl-induced FOS+/EGR-1+ double-positive nuclei fraction z-score [4]: -0.9

CCc1cnn2c(NCc3ccc[n+]([O-])c3)cc(N3CCCC[C@H]3CCO)nc12
nucleus area z-score [1]: -14.4 | total neurite length per nucleus (z-score) [2]: -5.12 | nucleus roundness z-score [3]: -3.17 | KCl-induced FOS+/EGR-1+ double-positive nuclei fraction z-score [4]: 3.35

O=C(O)c1cc(C(F)(F)F)ccc1N1CC[C@H](OCc2ccccn2)C1
nucleus area z-score [1]: -0.263 | total neurite length per nucleus (z-score) [2]: 0.0108 | nucleus roundness z-score [3]: 0.693 | KCl-induced FOS+/EGR-1+ double-positive nuclei fraction z-score [4]: 1.87

CC[C@H](C)C[C@H](C)CCCCCCCCC(=O)N[C@H]1C[C@@H](O)[C@@H](NCCN)NC(=O)[C@@H]2[C@@H](O)CCN2C(=O)[C@H]([C@H](O)CCN)NC(=O)[C@H]([C@H](O)[C@@H](O)c2ccc(O)cc2)NC(=O)[C@@H]2C[C@@H](O)CN2C(=O)[C@H]([C@@H](C)O)NC1=O [Caspofungin Acetate]
nucleus area z-score [1]: 1.93 | total neurite length per nucleus (z-score) [2]: 0.0128 | nucleus roundness z-score [3]: -0.471 | KCl-induced FOS+/EGR-1+ double-positive nuclei fraction z-score [4]: 0.746
